Measured values: patent US8466180B2, “Insecticidal compounds” (Syngenta Crop Protection LLC, priority 2006, dated 2013)
Some results were stated once for a whole list of compounds, not compound by compound.

Experiments:
Assay type in all cases: in vivo
Plutella xylostella = Plutella xylostella (diamond back moth) larval test on artificial diet; settings: application rate 200 ppm (concentration in well 18 ppm), L2 larvae, 6 days, larval mortality, growth regulation
Spodoptera littoralis = Spodoptera littoralis (Egyptian cotton leafworm) cotton leaf disc spray test; settings: application rate 200 ppm, sprayed cotton leaf discs, L1 larvae, 3 days after treatment; mortality, feeding behaviour, growth regulation
Diabrotica balteata = Diabrotica balteata (corn root worm) larval test on artificial diet; settings: application rate 200 ppm (concentration in well 18 ppm), L2 larvae, 5 days, larval mortality, growth regulation
Aedes aegypti = Aedes aegypti (yellow fever mosquito) larval test; settings: application rate 2 ppm, L2 larvae in 96-well plates, 2 days; mortality, growth inhibition
Heliothis virescens = Heliothis virescens (tobacco budworm) egg test on artificial diet; settings: application rate 200 ppm (concentration in well 18 ppm), eggs 0-24 h old on artificial diet, 4 days; egg mortality, larval mortality, growth regulation

Cc1cc(C(F)(C(F)(F)F)C(F)(F)F)cc(C)c1C(=O)Nc1cccc(NC(=O)c2cccnc2F)c1 [Compound A2]
at least 80%: control of Plutella xylostella (Plutella xylostella) | control of Spodoptera littoralis (Spodoptera littoralis) | control of Diabrotica balteata (Diabrotica balteata) | control of Aedes aegypti (Aedes aegypti) | control of Heliothis virescens (Heliothis virescens)

Cc1cc(C(F)(C(F)(F)F)C(F)(F)F)cc(C)c1C(=O)Nc1cccc(NC(=O)c2ccc(C#N)cc2)c1 [Compound A3, N-[3-(4-cyano-benzoylamino)-phenyl]-2,6-dimethyl-4-(1,2,2,2-tetrafluoro-1-trifluoromethyl-ethyl)-benzamide]
at least 80%: control of Plutella xylostella (Plutella xylostella) | control of Spodoptera littoralis (Spodoptera littoralis) | control of Diabrotica balteata (Diabrotica balteata) | control of Aedes aegypti (Aedes aegypti) | control of Heliothis virescens (Heliothis virescens)

Cc1cc(C(F)(C(F)(F)F)C(F)(F)F)cc(C)c1C(=O)Nc1cccc(NC(=O)c2ccnc(Cl)c2)c1 [Compound A6]
at least 80%: control of Plutella xylostella (Plutella xylostella) | control of Spodoptera littoralis (Spodoptera littoralis) | control of Diabrotica balteata (Diabrotica balteata) | control of Aedes aegypti (Aedes aegypti) | control of Heliothis virescens (Heliothis virescens)

Cc1cc(C(F)(C(F)(F)F)C(F)(F)F)cc(C)c1C(=O)Nc1cccc(NC(=O)c2ccc(Br)o2)c1 [Compound A8]
at least 80%: control of Plutella xylostella (Plutella xylostella) | control of Spodoptera littoralis (Spodoptera littoralis) | control of Diabrotica balteata (Diabrotica balteata) | control of Aedes aegypti (Aedes aegypti) | control of Heliothis virescens (Heliothis virescens)

Cc1cc(C(F)(C(F)(F)F)C(F)(F)F)cc(C)c1C(=O)Nc1cccc(NC(=O)c2ccc(Cl)nc2)c1 [Compound A14]
at least 80%: control of Plutella xylostella (Plutella xylostella) | control of Spodoptera littoralis (Spodoptera littoralis) | control of Diabrotica balteata (Diabrotica balteata) | control of Aedes aegypti (Aedes aegypti) | control of Heliothis virescens (Heliothis virescens)

Cc1cc(C(F)(C(F)(F)F)C(F)(F)F)cc(C)c1C(=O)Nc1cccc(NC(=O)c2ccc([N+](=O)[O-])cc2)c1 [Compound A15]
at least 80%: control of Plutella xylostella (Plutella xylostella) | control of Spodoptera littoralis (Spodoptera littoralis) | control of Diabrotica balteata (Diabrotica balteata) | control of Aedes aegypti (Aedes aegypti) | control of Heliothis virescens (Heliothis virescens)

Cc1cc(C(F)(C(F)(F)F)C(F)(F)F)cc(C)c1C(=O)Nc1cccc(NC(=O)c2cccnc2Cl)c1 [Compound A27]
at least 80%: control of Plutella xylostella (Plutella xylostella) | control of Spodoptera littoralis (Spodoptera littoralis) | control of Diabrotica balteata (Diabrotica balteata) | control of Aedes aegypti (Aedes aegypti) | control of Heliothis virescens (Heliothis virescens)

Cc1cc(C(F)(C(F)(F)F)C(F)(F)F)cc(C)c1C(=O)Nc1ccc(F)c(NC(=O)c2ccc(F)cc2)c1 [Compound B1]
at least 80%: control of Plutella xylostella (Plutella xylostella) | control of Spodoptera littoralis (Spodoptera littoralis) | control of Diabrotica balteata (Diabrotica balteata) | control of Aedes aegypti (Aedes aegypti) | control of Heliothis virescens (Heliothis virescens)
